Here are results for 23 molecules from article PMC3594244.

T1: PAG1-FLAG (PAG1, subunit in the α-ring of the 20S core particle, with a C-terminal FLAG tag) (Arabidopsis thaliana) (UniProt O23715)
T1 sequence (chain, N-acetyl-L-serine (1)): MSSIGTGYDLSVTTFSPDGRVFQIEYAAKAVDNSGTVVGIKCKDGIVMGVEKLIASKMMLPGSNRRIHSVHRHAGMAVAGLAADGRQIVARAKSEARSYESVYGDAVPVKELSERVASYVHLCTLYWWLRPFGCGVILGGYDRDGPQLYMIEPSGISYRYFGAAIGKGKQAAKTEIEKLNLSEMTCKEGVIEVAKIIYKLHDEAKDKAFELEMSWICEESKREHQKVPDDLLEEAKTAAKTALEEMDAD

B1: PBB2, N-terminally processed (protein, UniProt Q7DLS1 40-274)
chain: TTIVGLIFKDGVILGADTRATEGPIVADKNCEKIHYMAPNIYCCGAGTAADTEAVTDMVSSQLRLHRYQTGRDSRVVTALTLLKKHLFSYQGHVSAALVLGGVDITGPHLHTIYPHGSTDTLPFATMGSGSLAAMSVFEAKYKEGLTRDEGIKLVAEAICSGIFNDLGSGSNVDICVITKGHKEYLRNYMEPNPRTYVSSKGYSFTKKTEVLLTKITPLLERVEIVEVAGEAMEE
B2: PBG1 (β7 subunit), N-terminally processed (protein, UniProt Q7DLR9 24-246)
chain: TLYPYVTGTSIVAIKYKDGVLMASDMGGSYGSTLRYKNIERVKAIGKHSLLGASGEISDFQEILRYLDELTLNDNMWDDGNSLGPKEIHNYLTRVMYNRRNKFNPLWNTLVLGGVKNGKSYLGMVSMIGVSFEDDHVATGFGNHLARPILRDEWHADLSFEDGVKLLEKCMRVLLYRDRSAINKLQIAKITEEGVTVSQPYSLKTYWEFSSFHNPTAGAAGSW
B3: PBF1 (β6 subunit), N-terminally processed (protein, UniProt P42742 6-223)
chain: ANWSPYDNNGGTCVAIAGSDYCVIAADTRMSTGYSILSRDYSKIHKLADRAVLSSSGFQADVKALQKVLKSRHLIYQHQHNKQMSCPAMAQLLSNTLYFKRFFPYYAFNVLGGLDEEGKGCVFTYDAVGSYERVGYGAQGSGSTLIMPFLDNQLKSPSPLLLPKQDSNTPLSEAEAVDLVKTVFASATERDIYTGDKLEIMILKADGIKTELMDLRKD
B4: DSS1(V) (protein, UniProt Q9FL96 1-73)
chain: MAAEPKAAVEVVKVDLFEDDDEFEEFEINEDWLEKEEVKEVSLQWEDDWDDDDVSDDFSRQLKKELENASEKK
modifications: N-acetyl-L-alanine (1)
B5: PBE2 (β5 subunit isoform), N-terminally processed (protein, UniProt Q9LIP2 58-273)
chain: TTTLAFIFKEGVMVAADSRASMGGYISSQSVKKIIEINPYMLGTMAGGAADCQFWHRNLGIKCRLHELANKRRISVSGASKLLANMLYSYRGMGLSVGTMIAGWDETGPGLYYVDNEGGRLKGDRFSVGSGSPYAYGVLDSGYKFDMSVEEASELARRSIYHATFRDGASGGVASVYHVGPQGWTKLSGDDVGELHYHYYPVAPITAEHVMEEAAE
B6: PBD1 (protein, UniProt O23714 1-204)
chain: MECVFGLVGNGFAIVAADTSAVHSILLHKNNEDKIMVLDSHKLVAASGEPGDRVQFTEYVQKNVSLYKFRNGIPLTTAAAANFTRGELATALRKNPYSVNILMAGYDDESGASLYYIDYIATLHKVDKGAFGYGSYFSLSTMDRHYRSDMSVEEAIELVDKCILEIRSRLVVAPPNFVIKIVDKDGARDYAWRQSVKDVTTAVV
modifications: N-acetyl-L-methionine (1)
B7: PBA1, N-terminally processed (protein, UniProt Q8LD27 13-233)
chain: TTIIGVTYNGGVVLGADSRTSTGMYVANRASDKITQLTDNVYVCRSGSAADSQVVSDYVRYFLHQHTIQHGQPATVKVSANLIRMLAYNNKNMLQTGLIVGGWDKYEGGKIYGIPLGGTVVEQPFAIGGSGSSYLYGFFDQAWKDNMTKEEAEQLVVKAVSLAIARDGASGGVVRTVIINSEGVTRNFYPGDKLQLWHEELEPQNSLLDILNAAGPEPMAM
B8: DSS1(I) (protein, UniProt Q9XIR8 1-74)
chain: MAAEPKAATAEVVKMDLFEDDDEFEEFEINEDWLEKEEVKEVSQQWEDDWDDDDVNDDFSRQLRKELENGTDKK
modifications: N-acetyl-L-alanine (1)
B9: PBB1, N-terminally processed (protein, UniProt O23710 40-273)
chain: TTIVGLIFKDGVILGADTRATEGPIVADKNCEKIHYMAPNIYCCGAGTAADTEAVTDMVSSQLRLHRYQTGRDSRVITALTLLKKHLFSYQGHVSAALVLGGVDITGPHLHTIYPHGSTDTLPFATMGSGSLAAMSVFEAKYKEGLTRDEGIKLVAESICSGIFNDLGSGSNVDICVITKGNKEYLRNYMEPNPRTYVSSKGYSFTKKTEVLLTKITPLLERVEITEVGEAMEE
B10: DRT112, N-terminally processed (protein, UniProt P42699 69-167)
chain: IEVLLGGGDGSLAFIPNDFSIAKGEKIVFKNNAGYPHNVVFDEDEIPSGVDVAKISMDEQDLLNGAGETYEVALTEPGTYSFYCAPHQGAGMVGKVTVN
B11: PAA1 (protein, UniProt O81146 1-246)
chain: MSRGSGAGYDRHITIFSPEGRLFQVEYAFKAVKTAGITSIGVRGKDSVCVVTQKKVPDKLLDQSSVTHLFPITKYIGLVATGITADARSLVQQARNQAAEFRFTYGYEMPVDILAKWIADKSQVYTQHAYMRPLGVVAMVMGVDEENGPLLYKCDPAGHFYGHKATSAGMKEQEAVNFLEKKMKENPSFTFDETVQTAISALQSVLQEDFKATEIEVGVVRAENPEFRALTTEEIEEHLTAISERD
modifications: N-acetyl-L-serine (1)
B12: PAA2 (protein, UniProt O81147 1-246)
chain: MSRGSGAGYDRHITIFSPEGRLFQVEYAFKAVKAAGITSIGVRGKDSVCVVTQKKVPDKLLDQSSVSHLFPVTKYLGLLATGMTADSRSLVQQARNEAAEFRFQYGYEMPADILAKWIADKSQVYTQHAYMRPLGVVAMVLGIDEERGPLLYKCDPAGHFYGHKATSAGMKEQEAVNFLEKKMKENPAFTYDETVQTAISALQSVLQEDFKATEIEVGVVRADDPLFRSLRTEEIDEHLTAISERD
modifications: N-acetyl-L-serine (1)
B13: PAE2 (protein, UniProt Q42134 1-237)
chain: MFLTRTEYDRGVNTFSPEGRLFQVEYAIEAIKLGSTAIGVKTKEGVVLAVEKRITSPLLEPSSVEKIMEIDDHIGCAMSGLIADARTLVEHARVETQNHRFSYGEPMTVESTTQALCDLALRFGEGEEESMSRPFGVSLLIAGHDENGPSLYYTDPSGTFWQCNAKAIGSGSEGADSSLQEQFNKDITLQEAETIAVSILKQVMEEKVTPNNVDIAKVAPAYHLYTPQEVEAVISRL
modifications: N-acetyl-L-methionine (1)
B14: PAE1 (protein, UniProt O81149 1-237)
chain: B13 chain with I187L, T188S, S235A
modifications: N-acetyl-L-methionine (1)
B15: RPP2B (protein, UniProt Q9SLF7 1-115)
chain: MKVVAAYLLAVLSGKASPTSADIKTILGSVGAETEDSQIELLLKEVKGKDLAELIAAGREKLASVPSGGGGGVAVASATSGGGGGGGASAAESKKEEKKEEKEESDDDMGFSLFE
modifications: O-phospho-L-serine (105)
B16: CYS1 (protein, UniProt Q945Q1 1-101)
chain: MADQQAGTIVGGVRDIDANANDLQVESLARFAVDEHNKNENLTLEYKRLLGAKTQVVAGTMHHLTVEVADGETNKVYEAKVLEKAWENLKQLESFNHLHDV
modifications: N-acetyl-L-alanine (1)
B17: PAC1 (protein, UniProt O81148 1-250)
chain: MSRRYDSRTTIFSPEGRLYQVEYAMEAIGNAGSAIGILSKDGVVLIGEKKVTSKLLQTSTSAEKMYKIDDHVACAVAGIMSDANILINTARVQAQRYTFMYQEPMPVEQLVQSLCDTKQGYTQFGGLRPFGVSFLFAGWDKHHGFQLYMSDPSGNYGGWKAAAVGANNQAAQSILKQDYKDDATREEAVELALKVLTKTMDSTSLTSEKLELAEVYLTPSKTVKYHVHSPESLTKLLVKHGVTQPAAETS
modifications: N-acetyl-L-serine (1)
B18: PAB1 (protein, UniProt O23708 1-235)
chain: MGDSQYSFSLTTFSPSGKLVQIEHALTAVGSGQTSLGIKASNGVVIATEKKLPSILVDEASVQKIQHLTPNIGVVYSGMGPDFRVLVRKSRKQAEQYLRLYKEPIPVTQLVRETATVMQEFTQSGGVRPFGVSLLVAGYDDKGPQLYQVDPSGSYFSWKASAMGKNVSNAKTFLEKRYTEDMELDDAIHTAILTLKEGFEGEISSKNIEIGKIGADKVFRVLTPAEIDDYLAEVE
modifications: N-acetylglycine (1)
B19: PAB2 (protein, UniProt Q8L4A7 1-235)
chain: B18 chain with V74T, A215T
modifications: N-acetylglycine (1)
B20: PBE1 (β5 subunit isoform), N-terminally processed (protein, UniProt O23717 58-274)
chain: TTTLAFIFKGGVMVAADSRASMGGYISSQSVKKIIEINPYMLGTMAGGAADCQFWHRNLGIKCRLHELANKRRISVSGASKLLANMLYSYRGMGLSVGTMIAGWDETGPGLYYVDNEGGRLKGDRFSVGSGSPYAYGVLDSGYKYDMSVEEASELARRSIYHATFRDGASGGVASVYHVGPEGWTKLSGDDVGELHYHYYPVAPATAEQVMEEATAE
B21: PBD2 (protein, UniProt O24633 1-199)
chain: MECVFGLVGNGFAIVAADTSAVHSILLHKNKEDKIMTLDSHKLVAASGEPGDRVQFTEYVQKNVSLYQFRNGIPLSTAAAANFTRGELATALRKNPYSVNILMAGYDKEAGASLYYIDYIATLHKVDKGAFGYGSYFSLSTMDRHYRSDMSVEEAIELVDKCILEIRSRLVIAPPNFVIKIVDKDGAREYGWRISTADA
modifications: N-acetyl-L-methionine (1)
B22: PBC1 (protein, UniProt Q9XI05 1-204)
chain: MSIFEYNGSAVVAMVGKNCFAIASDRRLGVQLQTIATDFQRISKIHDRVFIGLSGLATDVQTLYQRLVFRHKLYQLREERDMKPETFASLVSAILYEKRFGPYLCQPVIAGLGDDDKPFICTMDSIGAKELAKDFVVSGTASESLYGACEAMYKPDMEAEELFETISQALLSSVDRDCLSGWGGHVYIVTPTEIKERILKGRMD
modifications: N-acetyl-L-serine (1)
B23: PBC2 (protein, UniProt O81153 1-204)
chain: B22 chain with R48H, V49L, Y103F, D116N, Y153F, I188V, T192K, I194V
modifications: N-acetyl-L-serine (1)

Positions count from the first letter of the chain named. Results are given in words; binding and its absence hold for the method and conditions named. In cells and extracts the contact can be indirect. These calls come from enrichment with a bait or labelling near it, and not all partners need be listed. Sequences can lack the tags named with a protein.

The target of this experiment is T1, PAG1-FLAG (PAG1, subunit in the α-ring of the 20S core particle, with a C-terminal FLAG tag) (Arabidopsis thaliana). The experiment in a line: affinity purification with mass spectrometry; soluble extract of PAG1-FLAG Arabidopsis seedlings passed over anti-FLAG beads, washed with 800 mM NaCl, eluted with excess FLAG peptide; intact proteins identified by nanoLC UV-IF and top-down ETD/HCD MS/MS.
For the molecule B1, the binding result was “binds”.

For B2, the binding entry is “binds”.

As for B3, the binding result was “binds”.

In the case of B4, the binding result is reported as “binds”.

Take B5: the binding result is on record as “binds”.

As for B6, the binding entry is “binds”.

Regarding B7, the binding result is recorded as “binds”.

Consider B8, for which the binding entry was “binds”.

For B9, the binding entry is recorded as “binds”.

For the molecule B10, the binding result is “binds”.

B11: the binding result is listed as “binds”.

For B12, the binding entry is listed as “binds”.

With B13, the binding entry is “binds”.

As to B14, the binding entry is on record as “binds”.

As for B15, the binding result is reported as “binds”.

With B16, the binding entry was “binds”.

In the case of B17, the binding result is given as “binds”.

With B18, the binding result is on record as “binds”.

Take B19: the binding result is reported as “binds”.

As for B20, the binding result is “binds”.

As for B21, the binding entry is “binds”.

With B22, the binding result is “binds”.

As for B23, the binding entry is “binds”.
